Measured values taken from US20230212566A1 (priority 2020, published 2023).
At least one structure is not confirmed: it was looked up by name or label, or the drawing left a doubt.

Tested on: CD133+ GBM cells
Format: cell-based
Conditions: 24 hours

SMILES: Cn1nnc2c(C(N)=O)ncn2c1=O [TMZ, Temozolomide]
- cell death (EthD-1 fluorescence) compared to non-silenced cells (NANOG or OCT4 silenced CD133+ GBM cells, same concentration of TMZ (10, 100, 1000 µM)): Significantly increased cell death
- cell death (EthD-1 fluorescence) (non-NANOG or OCT4 silenced CD133+ GBM cells, 10, 100 and 1000 µM TMZ): concentration dependent cell death though it was very minimum
